Source: the supplement of paper PMC6411743
± gives the standard deviation of the averaged measurements. Only a part is listed here, and it is no random draw.

Chains of the proteins cited; added tags and fusions are not shown. Lines headed by an entry give the natural chain unless they say otherwise; changes in a name come on top.
UniProt O95858: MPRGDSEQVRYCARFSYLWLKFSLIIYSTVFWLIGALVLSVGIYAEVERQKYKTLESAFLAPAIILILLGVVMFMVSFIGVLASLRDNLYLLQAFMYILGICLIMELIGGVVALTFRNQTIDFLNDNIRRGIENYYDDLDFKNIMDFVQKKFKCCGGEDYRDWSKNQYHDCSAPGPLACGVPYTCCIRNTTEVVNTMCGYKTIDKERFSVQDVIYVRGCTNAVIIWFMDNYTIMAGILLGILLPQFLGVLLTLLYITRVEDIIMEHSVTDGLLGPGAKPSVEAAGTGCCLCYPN
UniProt Q9NQ48: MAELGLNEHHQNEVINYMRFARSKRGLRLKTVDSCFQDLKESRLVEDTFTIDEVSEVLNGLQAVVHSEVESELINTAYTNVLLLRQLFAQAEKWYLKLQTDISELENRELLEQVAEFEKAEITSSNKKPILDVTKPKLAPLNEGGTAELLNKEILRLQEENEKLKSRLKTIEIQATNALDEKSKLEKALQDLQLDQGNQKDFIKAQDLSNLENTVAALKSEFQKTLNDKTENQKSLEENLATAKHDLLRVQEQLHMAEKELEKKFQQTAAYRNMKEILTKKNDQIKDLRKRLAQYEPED
UniProt Q96S82: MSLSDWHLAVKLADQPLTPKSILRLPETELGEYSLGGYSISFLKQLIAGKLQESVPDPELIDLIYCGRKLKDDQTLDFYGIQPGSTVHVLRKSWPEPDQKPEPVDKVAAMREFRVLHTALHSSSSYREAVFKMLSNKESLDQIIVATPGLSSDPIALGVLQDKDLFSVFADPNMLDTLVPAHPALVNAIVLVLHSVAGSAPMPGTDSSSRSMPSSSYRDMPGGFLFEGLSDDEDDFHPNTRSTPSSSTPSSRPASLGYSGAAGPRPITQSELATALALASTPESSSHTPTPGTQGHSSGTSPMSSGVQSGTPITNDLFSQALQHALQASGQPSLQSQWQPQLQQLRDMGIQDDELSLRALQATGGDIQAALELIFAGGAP
UniProt Q12982: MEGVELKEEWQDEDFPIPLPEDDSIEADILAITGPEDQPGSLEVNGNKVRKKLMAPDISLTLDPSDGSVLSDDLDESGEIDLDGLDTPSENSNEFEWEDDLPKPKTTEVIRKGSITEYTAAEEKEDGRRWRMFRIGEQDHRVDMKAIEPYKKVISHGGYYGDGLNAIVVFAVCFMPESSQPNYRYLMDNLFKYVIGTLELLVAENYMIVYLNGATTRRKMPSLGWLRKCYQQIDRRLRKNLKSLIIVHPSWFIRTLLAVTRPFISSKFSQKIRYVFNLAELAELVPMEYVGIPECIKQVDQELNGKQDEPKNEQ
UniProt O75354: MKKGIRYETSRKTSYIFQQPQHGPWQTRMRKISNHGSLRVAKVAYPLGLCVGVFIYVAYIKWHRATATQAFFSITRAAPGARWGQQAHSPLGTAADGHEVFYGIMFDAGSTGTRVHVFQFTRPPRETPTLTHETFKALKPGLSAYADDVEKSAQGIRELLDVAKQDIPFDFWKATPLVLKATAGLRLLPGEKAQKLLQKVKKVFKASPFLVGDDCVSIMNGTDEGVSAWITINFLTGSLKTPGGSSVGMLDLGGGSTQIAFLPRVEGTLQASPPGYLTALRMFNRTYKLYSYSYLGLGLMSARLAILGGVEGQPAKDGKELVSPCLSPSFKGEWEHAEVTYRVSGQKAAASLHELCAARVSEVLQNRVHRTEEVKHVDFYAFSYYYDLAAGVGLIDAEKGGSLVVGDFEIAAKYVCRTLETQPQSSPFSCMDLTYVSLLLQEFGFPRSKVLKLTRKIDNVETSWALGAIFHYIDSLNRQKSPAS
UniProt Q9UPV9: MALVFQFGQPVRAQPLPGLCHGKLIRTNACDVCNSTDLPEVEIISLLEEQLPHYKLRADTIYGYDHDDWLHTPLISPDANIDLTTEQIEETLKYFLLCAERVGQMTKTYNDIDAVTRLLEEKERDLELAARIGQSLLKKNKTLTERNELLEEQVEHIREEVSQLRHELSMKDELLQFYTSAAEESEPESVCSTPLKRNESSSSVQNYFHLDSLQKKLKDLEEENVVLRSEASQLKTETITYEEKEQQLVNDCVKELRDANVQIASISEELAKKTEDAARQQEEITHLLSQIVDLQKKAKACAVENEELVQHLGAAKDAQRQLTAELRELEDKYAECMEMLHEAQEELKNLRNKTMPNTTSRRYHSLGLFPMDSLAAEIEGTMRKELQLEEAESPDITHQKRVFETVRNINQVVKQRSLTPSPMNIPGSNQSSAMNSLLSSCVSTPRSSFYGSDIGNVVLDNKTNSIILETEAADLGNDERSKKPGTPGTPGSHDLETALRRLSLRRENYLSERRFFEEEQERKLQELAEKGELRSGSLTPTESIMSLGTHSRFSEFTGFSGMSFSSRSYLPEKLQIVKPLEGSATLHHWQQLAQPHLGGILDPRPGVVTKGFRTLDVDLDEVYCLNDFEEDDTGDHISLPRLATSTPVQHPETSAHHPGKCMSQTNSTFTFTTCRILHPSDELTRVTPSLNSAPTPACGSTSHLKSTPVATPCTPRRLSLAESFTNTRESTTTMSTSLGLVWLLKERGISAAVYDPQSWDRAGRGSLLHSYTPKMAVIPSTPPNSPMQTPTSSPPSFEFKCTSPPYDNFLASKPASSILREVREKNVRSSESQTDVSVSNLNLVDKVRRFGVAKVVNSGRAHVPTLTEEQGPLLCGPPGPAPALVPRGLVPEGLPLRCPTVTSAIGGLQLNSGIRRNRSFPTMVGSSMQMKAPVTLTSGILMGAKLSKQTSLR
UniProt P40763, whole entry: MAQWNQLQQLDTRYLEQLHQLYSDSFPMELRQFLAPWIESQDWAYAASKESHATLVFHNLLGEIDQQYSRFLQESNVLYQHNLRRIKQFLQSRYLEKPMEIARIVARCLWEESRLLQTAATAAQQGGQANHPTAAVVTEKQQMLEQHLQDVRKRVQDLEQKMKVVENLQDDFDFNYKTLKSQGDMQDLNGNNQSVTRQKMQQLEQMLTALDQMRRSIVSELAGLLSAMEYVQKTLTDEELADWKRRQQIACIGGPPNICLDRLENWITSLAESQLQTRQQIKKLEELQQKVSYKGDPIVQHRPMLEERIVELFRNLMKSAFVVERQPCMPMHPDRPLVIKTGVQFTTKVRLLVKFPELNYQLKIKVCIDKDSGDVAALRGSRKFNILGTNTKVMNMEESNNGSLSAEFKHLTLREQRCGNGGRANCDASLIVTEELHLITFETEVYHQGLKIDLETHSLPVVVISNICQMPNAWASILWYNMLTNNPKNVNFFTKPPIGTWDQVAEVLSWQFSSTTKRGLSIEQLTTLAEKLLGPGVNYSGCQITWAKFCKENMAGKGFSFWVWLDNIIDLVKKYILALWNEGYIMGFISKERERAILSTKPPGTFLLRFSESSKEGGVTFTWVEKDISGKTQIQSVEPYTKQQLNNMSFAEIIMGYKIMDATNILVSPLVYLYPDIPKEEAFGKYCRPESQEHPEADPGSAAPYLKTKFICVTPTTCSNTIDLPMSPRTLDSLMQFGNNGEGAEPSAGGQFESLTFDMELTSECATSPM
UniProt Q9NPR2: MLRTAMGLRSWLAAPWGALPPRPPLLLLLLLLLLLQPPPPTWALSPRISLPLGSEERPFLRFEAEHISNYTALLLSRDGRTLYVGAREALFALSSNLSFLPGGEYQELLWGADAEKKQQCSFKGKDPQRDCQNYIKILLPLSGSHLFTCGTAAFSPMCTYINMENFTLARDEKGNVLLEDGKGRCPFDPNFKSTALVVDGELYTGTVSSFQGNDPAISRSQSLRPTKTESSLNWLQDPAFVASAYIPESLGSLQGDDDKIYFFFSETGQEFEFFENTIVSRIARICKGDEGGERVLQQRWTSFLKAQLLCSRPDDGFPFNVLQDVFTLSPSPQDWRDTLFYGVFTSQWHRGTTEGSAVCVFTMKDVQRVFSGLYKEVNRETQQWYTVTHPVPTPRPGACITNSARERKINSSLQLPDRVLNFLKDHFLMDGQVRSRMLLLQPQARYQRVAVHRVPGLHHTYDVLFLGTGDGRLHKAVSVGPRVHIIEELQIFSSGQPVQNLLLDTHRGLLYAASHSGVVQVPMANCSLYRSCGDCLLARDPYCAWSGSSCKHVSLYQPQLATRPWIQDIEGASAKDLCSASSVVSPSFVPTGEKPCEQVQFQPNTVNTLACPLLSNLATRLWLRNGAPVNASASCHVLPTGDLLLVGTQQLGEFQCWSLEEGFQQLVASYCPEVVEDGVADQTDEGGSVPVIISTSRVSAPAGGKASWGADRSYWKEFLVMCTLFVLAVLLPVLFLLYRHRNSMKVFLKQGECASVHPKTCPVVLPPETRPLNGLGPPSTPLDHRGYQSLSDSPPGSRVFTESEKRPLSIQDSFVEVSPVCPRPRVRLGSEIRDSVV
UniProt Q9HAD4: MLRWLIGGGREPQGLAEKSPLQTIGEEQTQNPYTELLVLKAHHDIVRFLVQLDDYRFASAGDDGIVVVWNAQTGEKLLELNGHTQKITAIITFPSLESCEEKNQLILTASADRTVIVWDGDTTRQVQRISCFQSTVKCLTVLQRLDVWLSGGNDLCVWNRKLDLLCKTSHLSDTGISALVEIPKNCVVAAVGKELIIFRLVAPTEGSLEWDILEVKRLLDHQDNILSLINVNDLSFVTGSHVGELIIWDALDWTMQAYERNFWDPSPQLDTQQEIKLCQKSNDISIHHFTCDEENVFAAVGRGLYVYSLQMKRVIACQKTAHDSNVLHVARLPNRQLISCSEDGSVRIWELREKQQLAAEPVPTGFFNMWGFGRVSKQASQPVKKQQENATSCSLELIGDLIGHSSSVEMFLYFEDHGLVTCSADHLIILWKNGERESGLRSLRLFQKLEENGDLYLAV
UniProt Q96CD2: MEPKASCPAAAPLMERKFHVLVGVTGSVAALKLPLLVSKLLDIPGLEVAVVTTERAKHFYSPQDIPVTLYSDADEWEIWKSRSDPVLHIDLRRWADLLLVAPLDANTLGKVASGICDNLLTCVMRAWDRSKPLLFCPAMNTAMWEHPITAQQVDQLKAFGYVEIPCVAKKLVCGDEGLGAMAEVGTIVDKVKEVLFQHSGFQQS
UniProt P13797: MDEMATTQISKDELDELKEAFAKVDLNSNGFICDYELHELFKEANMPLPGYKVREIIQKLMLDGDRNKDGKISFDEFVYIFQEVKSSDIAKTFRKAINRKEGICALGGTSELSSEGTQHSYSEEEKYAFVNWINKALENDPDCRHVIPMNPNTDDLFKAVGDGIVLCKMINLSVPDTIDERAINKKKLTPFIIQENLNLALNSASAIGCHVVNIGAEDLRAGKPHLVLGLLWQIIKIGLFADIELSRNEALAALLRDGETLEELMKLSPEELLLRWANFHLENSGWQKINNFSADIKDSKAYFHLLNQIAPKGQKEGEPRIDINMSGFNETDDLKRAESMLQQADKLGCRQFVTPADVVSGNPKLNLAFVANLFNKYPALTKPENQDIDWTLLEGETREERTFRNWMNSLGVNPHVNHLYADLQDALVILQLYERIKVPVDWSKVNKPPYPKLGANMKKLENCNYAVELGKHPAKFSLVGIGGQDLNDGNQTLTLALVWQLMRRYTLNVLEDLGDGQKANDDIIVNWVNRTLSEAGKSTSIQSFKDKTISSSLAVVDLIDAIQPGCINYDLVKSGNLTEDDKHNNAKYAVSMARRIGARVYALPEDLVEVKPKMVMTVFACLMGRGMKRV
UniProt Q99611, whole entry: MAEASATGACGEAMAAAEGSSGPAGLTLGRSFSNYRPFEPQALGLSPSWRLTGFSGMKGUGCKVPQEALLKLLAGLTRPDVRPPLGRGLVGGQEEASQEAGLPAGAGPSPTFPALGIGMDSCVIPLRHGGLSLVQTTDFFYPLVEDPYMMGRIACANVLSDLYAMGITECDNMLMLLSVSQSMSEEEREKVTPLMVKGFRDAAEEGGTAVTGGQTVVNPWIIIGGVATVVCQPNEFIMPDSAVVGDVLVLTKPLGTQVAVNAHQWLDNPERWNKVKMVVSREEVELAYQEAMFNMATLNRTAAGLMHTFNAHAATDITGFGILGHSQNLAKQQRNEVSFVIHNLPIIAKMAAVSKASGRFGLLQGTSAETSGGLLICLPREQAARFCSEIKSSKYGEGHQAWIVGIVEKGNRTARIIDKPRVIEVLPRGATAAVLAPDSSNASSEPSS
UniProt Q96FV2: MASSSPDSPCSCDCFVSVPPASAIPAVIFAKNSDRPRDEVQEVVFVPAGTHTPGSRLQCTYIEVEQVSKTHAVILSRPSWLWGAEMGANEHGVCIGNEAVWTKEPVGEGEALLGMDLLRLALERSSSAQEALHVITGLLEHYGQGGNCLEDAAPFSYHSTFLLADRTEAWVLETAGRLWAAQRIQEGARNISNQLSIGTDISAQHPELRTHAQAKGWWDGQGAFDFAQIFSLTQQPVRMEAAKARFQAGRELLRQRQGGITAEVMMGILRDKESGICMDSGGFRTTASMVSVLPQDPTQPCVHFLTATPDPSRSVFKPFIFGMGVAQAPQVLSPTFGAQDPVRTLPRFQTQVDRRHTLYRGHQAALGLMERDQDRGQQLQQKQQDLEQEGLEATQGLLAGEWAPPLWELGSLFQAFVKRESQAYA

Compound: Nc1ncnc2c1ncn2[C@@H]1O[C@H](COP(=O)(O)OP(=O)(O)NP(=O)(O)O)[C@@H](O)[C@H]1O [adenylyl imidodiphosphate]
Assay: NP40-soluble protein abundance relative to vehicle (solubility fold change) (ratio); higher = more soluble protein in presence of AMP-PNP
Procedure, shortened: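 In three independent experiments, Jurkat crude lysate made by Dounce homogenisation was treated for 10 min at room temperature and then 3 min at 37 °C with eight concentrations ranging from 0.1 to 10 mM. It was then solubilised with 0.8% NP40 plus benzonase for 60 min at 4 °C and ultracentrifuged. The supernatant was TMT-labelled for LC-MS/MS, and each value is the fold change against the detergent-processed vehicle for the same replicate, using vsn-normalised intensities.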

Target | NP40-soluble protein abundance (concentration: 1mM) | NP40-soluble protein abundance (concentration: 2mM) | NP40-soluble protein abundance (concentration: 4mM) | NP40-soluble protein abundance (concentration: 6mM) | NP40-soluble protein abundance (concentration: 8mM) | NP40-soluble protein abundance (concentration: 10mM)
H7C285 and related entries (UniProt O95858) | 0.97 ± 0.044 | 0.969 ± 0.018 | 0.9717 ± 0.0056 | 0.998 ± 0.032 | 0.983 ± 0.033 | 0.963 ± 0.021
H7C488 and related entries (UniProt Q9NQ48) | 0.955 ± 0.1 | 1.025 ± 0.0079 | 0.93 ± 0.12 | 0.855 ± 0.062 | 0.889 ± 0.014 | 0.74 ± 0.1
H0YLM8 and related entries (UniProt Q8TDJ6) | 0.95 ± 0.011 | 0.922 ± 0.063 | 0.974 ± 0.018 | 0.918 ± 0.038 | 0.937 ± 0.064 | 0.92 ± 0.052
H3BUV9 and related entries (UniProt Q96S82) | 1.04 ± 0.032 | 1.04 ± 0.038 | 1.02 ± 0.024 | 0.979 ± 0.012 | 0.983 ± 0.024 | 0.983 ± 0.013
I3L1A3 and related entries (UniProt O76021) | 1.08 ± 0.031 | 1.12 ± 0.014 | 1.1 ± 0.018 | 1.121 ± 0.0097 | 1.14 ± 0.046 | 1.23 ± 0.021
J3KNQ6 and related entries (UniProt Q86VK4) | 0.9972 ± 0.0069 | 1.01 ± 0.023 | 0.981 ± 0.021 | 1.03 ± 0.03 | 1.03 ± 0.033 | 1.02 ± 0.013
H0Y9X1 and related entries (UniProt Q96EY4) | 0.95 ± 0.034 | 0.977 ± 0.036 | 0.993 ± 0.046 | 1.14 ± 0.027 | 1.178 ± 0.0055 | 1.33 ± 0.044
J3KMZ9 and related entries (UniProt P01130) | 0.992 ± 0.04 | 1.02 ± 0.035 | 1.02 ± 0.068 | 0.975 ± 0.032 | 0.959 ± 0.024 | 0.969 ± 0.049
J3KN10 and related entries (UniProt P42356) | 1.02 ± 0.017 | 1.05 ± 0.058 | 1.03 ± 0.067 | 0.997 ± 0.043 | 1.01 ± 0.016 | 1.04 ± 0.066
J3KN59 and related entries (UniProt Q12982) | 1.06 ± 0.063 | 1.06 ± 0.024 | 1.01 ± 0.03 | 1 ± 0.079 | 0.986 ± 0.046 | 0.992 ± 0.029
H0Y473 and related entries (UniProt O75354) | 1.01 ± 0.022 | 1.01 ± 0.023 | 1.004 ± 0.0036 | 0.993 ± 0.023 | 0.984 ± 0.033 | 1.02 ± 0.038
J3KP06 and related entries (UniProt Q8WWI1) | 1.06 ± 0.017 | 1.109 ± 0.0053 | 1.16 ± 0.084 | 1.18 ± 0.065 | 1.19 ± 0.025 | 1.27 ± 0.051
H0Y6E6 and related entries (UniProt Q92622) | 0.988 ± 0.06 | 0.964 ± 0.027 | 0.987 ± 0.03 | 0.982 ± 0.031 | 0.966 ± 0.017 | 0.94 ± 0.019
J3KNN7 and related entries (UniProt Q7Z569) | 1.014 ± 0.0046 | 1.03 ± 0.022 | 1.05 ± 0.023 | 0.988 ± 0.015 | 0.998 ± 0.015 | 1.02 ± 0.022
J3KQ40 and related entries (UniProt O95759) | 1.004 ± 0.0068 | 1 ± 0.014 | 0.995 ± 0.018 | 1.014 ± 0.0064 | 1 ± 0.017 | 0.9892 ± 0.0093
J3KNQ1 and related entries (UniProt Q6P2D0) | 0.99 ± 0.025 | 0.986 ± 0.053 | 0.963 ± 0.056 | 0.992 ± 0.071 | 0.982 ± 0.068 | 0.95 ± 0.031
H3BPZ0 and related entries (UniProt Q6PCT2) | 1.01 ± 0.054 | 1.03 ± 0.024 | 1.036 ± 0.0089 | 1.01 ± 0.017 | 1.04 ± 0.023 | 1.04 ± 0.05
H3BQM0 and related entries (UniProt Q8NDF8) | 0.993 ± 0.044 | 0.997 ± 0.02 | 1.04 ± 0.05 | 1.01 ± 0.039 | 1.04 ± 0.044 | 1.04 ± 0.061
H7C3T3 (UniProt Q9UPV9) | 0.961 ± 0.014 | 0.969 ± 0.018 | 0.945 ± 0.084 | 0.914 ± 0.066 | 0.901 ± 0.022 | 0.87 ± 0.026
G8JLH9 and related entries (UniProt P40763) | 1.02 ± 0.019 | 0.993 ± 0.075 | 1 ± 0.064 | 0.966 ± 0.011 | 0.959 ± 0.042 | 0.955 ± 0.053
J3KNP4 and related entries (UniProt Q9NPR2) | 1.02 ± 0.015 | 1.03 ± 0.036 | 1.01 ± 0.033 | 1.02 ± 0.026 | 1 ± 0.039 | 1 ± 0.042
H0YAA3 and related entries (UniProt Q9HAD4) | 1 ± 0.015 | 0.949 ± 0.048 | 1.03 ± 0.069 | 0.969 ± 0.051 | 0.992 ± 0.02 | 0.944 ± 0.031
H3BRQ0 and related entries (UniProt Q96CD2) | 0.997 ± 0.028 | 0.998 ± 0.014 | 0.9917 ± 0.0054 | 1.018 ± 0.008 | 1 ± 0.041 | 0.978 ± 0.011
J3KR97 and related entries (UniProt Q9BTW9) | 0.933 ± 0.02 | 0.869 ± 0.099 | 0.945 ± 0.029 | 0.957 ± 0.077 | 0.984 ± 0.035 | 0.941 ± 0.016
H0Y8P4 and related entries (UniProt Q8TED0) | 1.01 ± 0.024 | 1.04 ± 0.025 | 1.043 ± 0.0024 | 1.04 ± 0.012 | 1.09 ± 0.021 | 1.13 ± 0.021
H7C4N2 and related entries (UniProt P13797) | 0.995 ± 0.024 | 1.02 ± 0.016 | 0.976 ± 0.029 | 0.981 ± 0.031 | 0.961 ± 0.049 | 0.986 ± 0.026
J3KR58 and related entries (UniProt Q99611) | 1.04 ± 0.016 | 1.041 ± 0.0078 | 1.03 ± 0.032 | 1.01 ± 0.028 | 1 ± 0.018 | 0.991 ± 0.019
J3KQ48 and related entries (UniProt Q9Y3E5) | 1.02 ± 0.053 | 1.03 ± 0.029 | 1.03 ± 0.033 | 1.04 ± 0.015 | 1.073 ± 0.0098 | 1.04 ± 0.024
H0YEM9 and related entries (UniProt Q8NCP5) | 1.03 ± 0.023 | 1.03 ± 0.013 | 1.003 ± 0.0095 | 1.03 ± 0.025 | 1.06 ± 0.021 | 1.02 ± 0.011
J3QL71 and related entries (UniProt Q96FV2) | 1.12 ± 0.04 | 1.09 ± 0.025 | 1.1 ± 0.031 | 1.05 ± 0.034 | 1.04 ± 0.033 | 1.07 ± 0.067

Looked up one by one from the list above, 2 records:
Target | NP40-soluble protein abundance (concentration: 1mM) | NP40-soluble protein abundance (concentration: 2mM) | NP40-soluble protein abundance (concentration: 4mM) | NP40-soluble protein abundance (concentration: 6mM) | NP40-soluble protein abundance (concentration: 8mM) | NP40-soluble protein abundance (concentration: 10mM)
H3BRQ0 and related entries (UniProt Q96CD2) | 0.997 ± 0.028 | 0.998 ± 0.014 | 0.9917 ± 0.0054 | 1.018 ± 0.008 | 1 ± 0.041 | 0.978 ± 0.011
H3BPZ0 and related entries (UniProt Q6PCT2) | 1.01 ± 0.054 | 1.03 ± 0.024 | 1.036 ± 0.0089 | 1.01 ± 0.017 | 1.04 ± 0.023 | 1.04 ± 0.05
